{"source": "PubChem BioAssay AID1508587 (Peter MacCallum Cancer Centre, 2020)", "test": "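Follow-up of vemurafenib sensitisers scored by lactate made per cell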 (follow-up of hits)", "system": "human WM266.4 melanoma cells with a BRAF V600 mutation", "reagent": "single siRNA against human genes, 25 nM", "duration": "96 h", "challenge": "vemurafenib 300 nM (about IC25), given 48 h after transfection for 48 h", "measurement": "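Medium lactate read by absorbance over DAPI-counted nuclei; ratio with versus without vemurafenib, set against non-targeting siRNA, averaged over 2 replicates; cell number also recorded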", "reading the numbers": "lactate per cell, drug vs no drug: higher = less drug-induced drop in lactate per cell", "rule for the call": "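a duplex is active when its lactate-per-cell ratio with versus without drug falls under 0.55, i.e. 2 SD below non-targeting; a gene is confirmed if 2 or more of 4 duplexes pass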", "note": "Shown is an unselected part of about 1,600 deposited reagents. 623 of them (39%) were called active. 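Calls are for each duplex; lactate ratios contain extreme outliers.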 Reagents against one gene are numbered here. Further read-outs or replicates are left out here."}
{"Gene":"PYROXD2 (pyridine nucleotide-disulphide oxidoreductase domain 2)","reagent":1,"lactate per cell, drug vs no drug":0.62,"outcome":"inactive"}
{"Gene":"PYROXD2 (pyridine nucleotide-disulphide oxidoreductase domain 2)","reagent":2,"lactate per cell, drug vs no drug":0.72,"outcome":"inactive"}
{"Gene":"PYROXD2 (pyridine nucleotide-disulphide oxidoreductase domain 2)","reagent":3,"lactate per cell, drug vs no drug":0.36,"outcome":"active"}
{"Gene":"PYROXD2 (pyridine nucleotide-disulphide oxidoreductase domain 2)","reagent":4,"lactate per cell, drug vs no drug":0.42,"outcome":"active"}

Next part, starting with the last 2 of the part before.
{"Gene":"PYROXD2 (pyridine nucleotide-disulphide oxidoreductase domain 2)","reagent":3,"lactate per cell, drug vs no drug":0.36,"outcome":"active"}
{"Gene":"PYROXD2 (pyridine nucleotide-disulphide oxidoreductase domain 2)","reagent":4,"lactate per cell, drug vs no drug":0.42,"outcome":"active"}
{"Gene":"TANGO2 (transport and golgi organization 2 homolog)","reagent":1,"lactate per cell, drug vs no drug":0.81,"outcome":"inactive"}
{"Gene":"TANGO2 (transport and golgi organization 2 homolog)","reagent":2,"lactate per cell, drug vs no drug":0.14,"outcome":"active"}
{"Gene":"TANGO2 (transport and golgi organization 2 homolog)","reagent":3,"lactate per cell, drug vs no drug":0.5,"outcome":"active"}
{"Gene":"TANGO2 (transport and golgi organization 2 homolog)","reagent":4,"lactate per cell, drug vs no drug":0.74,"outcome":"inactive"}
{"Gene":"PDK3 (pyruvate dehydrogenase kinase 3)","reagent":1,"lactate per cell, drug vs no drug":0.43,"outcome":"active"}
{"Gene":"PDK3 (pyruvate dehydrogenase kinase 3)","reagent":2,"lactate per cell, drug vs no drug":0.47,"outcome":"active"}
{"Gene":"PDK3 (pyruvate dehydrogenase kinase 3)","reagent":3,"lactate per cell, drug vs no drug":0.63,"outcome":"inactive"}
{"Gene":"PDK3 (pyruvate dehydrogenase kinase 3)","reagent":4,"lactate per cell, drug vs no drug":0.94,"outcome":"inactive"}
